Reference: PubChem BioAssay AID743121 (NCATS, 2013)
Here is a random part of about 26,000 deposited reagents. Over the whole deposit, 167 (0.63%) are marked active. 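Calls are per gene from RSA p-values that are not deposited; an individual active-marked siRNA can sensitise only weakly.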 Reagents against one gene are numbered here.

- Test: 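Genes whose silencing strengthens cell killing by camptothecin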 (primary screen)
- System: MDA-MB-231 cells, a human breast cancer line
- Reagents: single siRNA against human genes, 20 nM siRNA (0.8 pmol per well)
- Duration: 120 h (drug added 48 h after transfection, read 72 h later)
- Challenge: camptothecin 20 nM (about EC30) for 72 h; vehicle 0.1% DMSO in parallel plates
- Measured: 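CellTiter-Glo ATP signal, scaled to control siRNA as percent viability; sensitisation given as log2 of untreated divided by camptothecin-treated viability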
- Scale: log2 vehicle/camptothecin viability: higher = stronger sensitisation to camptothecin; viability with camptothecin and viability without drug: higher = more viable cells
- Hit rule: 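Each gene scored by redundant siRNA activity (RSA) over its individual siRNA ratios; a gene is called active at p < 0.001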

target gene | reagent | log2 vehicle/camptothecin viability | viability with camptothecin (% of control) | viability without drug (% of control) | call
PFKFB1 (GeneID 5207) | 1 | -0.0369 | 60 | 58.5 | inactive
PFKFB1 (GeneID 5207) | 2 | -0.0686 | 65.9 | 62.9 | inactive
PFKFB1 (GeneID 5207) | 3 | 0.0992 | 83.2 | 89.1 | inactive
PFKFB1 (GeneID 5207) | 4 | -0.177 | 49 | 43.3 | inactive
FMR1 (GeneID 2332) | 1 | 0.137 | 78.5 | 86.3 | inactive
FMR1 (GeneID 2332) | 2 | -0.416 | 57.9 | 43.4 | inactive
FMR1 (GeneID 2332) | 3 | -0.275 | 88.8 | 73.4 | inactive
FMR1 (GeneID 2332) | 4 | -0.195 | 93.5 | 81.7 | inactive
APOH (GeneID 350) | 1 | -0.104 | 85.5 | 79.5 | inactive
APOH (GeneID 350) | 2 | -0.395 | 50.4 | 38.3 | inactive
APOH (GeneID 350) | 3 | -0.115 | 58.6 | 54.1 | inactive
APOH (GeneID 350) | 4 | -0.247 | 86.9 | 73.3 | inactive
MED19 (GeneID 219541) | 1 | 0.112 | 84.7 | 91.5 | inactive
MED19 (GeneID 219541) | 2 | -0.109 | 72.7 | 67.4 | inactive
MED19 (GeneID 219541) | 3 | 0.449 | 50.7 | 69.3 | inactive
MED19 (GeneID 219541) | 4 | 0.336 | 33.6 | 42.4 | inactive
CITED2 (GeneID 10370) | 1 | -0.00468 | 16.8 | 16.7 | inactive
CITED2 (GeneID 10370) | 2 | -0.534 | 55.3 | 38.2 | inactive
CITED2 (GeneID 10370) | 3 | 0.24 | 68.8 | 81.3 | inactive
CITED2 (GeneID 10370) | 4 | -0.0653 | 79.6 | 76.1 | inactive
INPP1 (GeneID 3628) | 1 | -0.33 | 70.8 | 56.3 | inactive
INPP1 (GeneID 3628) | 2 | -0.121 | 92.4 | 85 | inactive
INPP1 (GeneID 3628) | 3 | -0.0156 | 32.6 | 32.2 | inactive
INPP1 (GeneID 3628) | 4 | -0.159 | 90.1 | 80.6 | inactive
NTSR2 (GeneID 23620) | 1 | -0.241 | 78.7 | 66.6 | inactive
NTSR2 (GeneID 23620) | 2 | 0.387 | 52.5 | 68.6 | inactive
NTSR2 (GeneID 23620) | 3 | -0.377 | 53.9 | 41.5 | inactive
NTSR2 (GeneID 23620) | 4 | -0.21 | 65.4 | 56.6 | inactive
MCAM (GeneID 4162) | 1 | -0.0868 | 69.5 | 65.4 | inactive
MCAM (GeneID 4162) | 2 | -0.285 | 73.1 | 60 | inactive
MCAM (GeneID 4162) | 3 | -0.177 | 62.1 | 54.9 | inactive
MCAM (GeneID 4162) | 4 | -0.349 | 107 | 83.8 | inactive
PDE7B (GeneID 27115) | 1 | -0.019 | 106 | 105 | inactive
PDE7B (GeneID 27115) | 2 | -0.103 | 91.4 | 85 | inactive
PDE7B (GeneID 27115) | 3 | 0.359 | 58.2 | 74.7 | inactive
PDE7B (GeneID 27115) | 4 | 0.12 | 56.4 | 61.3 | inactive
PIK3CA (GeneID 5290) | 1 | -0.108 | 107 | 99 | inactive
PIK3CA (GeneID 5290) | 2 | 0.277 | 83.1 | 101 | inactive
PIK3CA (GeneID 5290) | 3 | 0.00998 | 107 | 108 | inactive
PIK3CA (GeneID 5290) | 4 | -0.35 | 72.3 | 56.8 | inactive
PSMB10 (GeneID 5699) | 1 | 0.494 | 35.8 | 50.5 | inactive
PSMB10 (GeneID 5699) | 2 | -0.697 | 54.6 | 33.7 | inactive
PSMB10 (GeneID 5699) | 3 | -0.554 | 66.1 | 45 | inactive
PSMB10 (GeneID 5699) | 4 | -0.124 | 42.7 | 39.2 | inactive

Look-ups from the list.
Result for FMR1 (GeneID 2332) #1 in “log2 vehicle/camptothecin viability”: 0.137
Under “viability without drug (% of control)”, MED19 (GeneID 219541) #2 reads 67.4
Value of PFKFB1 (GeneID 5207) #3 in “call”: inactive
Under “viability without drug (% of control)”, CITED2 (GeneID 10370) #1 has 16.7

The list goes on:
target gene | reagent | log2 vehicle/camptothecin viability | viability with camptothecin (% of control) | viability without drug (% of control) | call
PARK7 (GeneID 11315) | 1 | 0.181 | 101 | 114 | inactive
PARK7 (GeneID 11315) | 2 | -0.136 | 104 | 94.5 | inactive
PARK7 (GeneID 11315) | 3 | 0.27 | 82.1 | 99 | inactive
PARK7 (GeneID 11315) | 4 | -0.256 | 32.2 | 27 | inactive
HCN1 (GeneID 348980) | 1 | -0.701 | 90.6 | 55.7 | inactive
HCN1 (GeneID 348980) | 2 | -0.143 | 106 | 95.7 | inactive
HCN1 (GeneID 348980) | 3 | -0.14 | 72.1 | 65.4 | inactive
ITM2B (GeneID 9445) | 1 | 0.489 | 79 | 111 | inactive
ITM2B (GeneID 9445) | 2 | 0.0866 | 83.3 | 88.5 | inactive
ITM2B (GeneID 9445) | 3 | -0.106 | 51.5 | 47.8 | inactive
ITM2B (GeneID 9445) | 4 | 0.0296 | 83.8 | 85.6 | inactive
IARS2 (GeneID 55699) | 1 | -0.089 | 76.1 | 71.5 | inactive
IARS2 (GeneID 55699) | 2 | -0.304 | 109 | 88 | inactive
IARS2 (GeneID 55699) | 3 | -0.406 | 57.4 | 43.3 | inactive
BPIFC (GeneID 254240) | 1 | -0.0839 | 105 | 99.2 | inactive
BPIFC (GeneID 254240) | 2 | -0.0243 | 63.9 | 62.8 | inactive
BPIFC (GeneID 254240) | 3 | -0.485 | 41.4 | 29.5 | inactive
SLC25A14 (GeneID 9016) | 1 | -0.185 | 58 | 51 | inactive
SLC25A14 (GeneID 9016) | 2 | 0.0131 | 95.5 | 96.4 | inactive
SLC25A14 (GeneID 9016) | 3 | -0.539 | 73.5 | 50.6 | inactive
SLC25A14 (GeneID 9016) | 4 | 0.00496 | 69.8 | 70 | inactive
PIK3C2G (GeneID 5288) | 1 | 0.205 | 40.7 | 46.9 | inactive
PIK3C2G (GeneID 5288) | 2 | -0.0576 | 106 | 102 | inactive
PIK3C2G (GeneID 5288) | 3 | -0.199 | 121 | 105 | inactive
PIK3C2G (GeneID 5288) | 4 | 0.13 | 74.7 | 81.7 | inactive
HPN (GeneID 3249) | 1 | -0.0107 | 84 | 83.4 | inactive
HPN (GeneID 3249) | 2 | -0.162 | 109 | 97.4 | inactive
HPN (GeneID 3249) | 3 | 0.242 | 48.3 | 57.1 | inactive
HPN (GeneID 3249) | 4 | -0.00656 | 58.9 | 58.7 | inactive
TGFB2 (GeneID 7042) | 1 | 0.249 | 2.37 | 2.81 | inactive
TGFB2 (GeneID 7042) | 2 | 0.00603 | 63.8 | 64.1 | inactive
TGFB2 (GeneID 7042) | 3 | -0.707 | 109 | 66.8 | inactive
CHRNG (GeneID 1146) | 1 | -0.438 | 86.2 | 63.7 | inactive
CHRNG (GeneID 1146) | 2 | -0.503 | 14 | 9.86 | inactive
CHRNG (GeneID 1146) | 3 | -0.446 | 71.1 | 52.2 | inactive
HTR6 (GeneID 3362) | 1 | -0.587 | 63.7 | 42.4 | inactive
HTR6 (GeneID 3362) | 2 | 0.0223 | 22.9 | 23.2 | inactive
HTR6 (GeneID 3362) | 3 | 0.868 | 58 | 106 | inactive
HTR6 (GeneID 3362) | 4 | -0.16 | 87.4 | 78.2 | inactive
TRAF7 (GeneID 84231) | 1 | -0.126 | 101 | 92.3 | inactive
TRAF7 (GeneID 84231) | 2 | -0.438 | 53 | 39.1 | inactive
TRAF7 (GeneID 84231) | 3 | 0.0835 | 96.9 | 103 | inactive
TRAF7 (GeneID 84231) | 4 | 0.049 | 28.2 | 29.2 | inactive
